Results from patent publication US20230346708A1, “STABLE FORMULATIONS OF ANTI-CANCER PEPTIDES” (Oncolyze, Inc., priority 2020, published 2023).
Not every detail of the peptide structures is certain; ends, links or a residue may be inferred. No end group written: not given here.

Legend:
cancer cells = cancer cells vs normal cells; general statement, no data shown; cited from earlier work
[1] = type: physicochemical; conditions: 25 mg/mL in water; pH 8.8 sample vs. pH of 5.1
[2] = Physical stability (visual appearance: solution vs gel) of PNC-27 solutions; type: physicochemical

PPLSQETFSDLWKLLKKWKMRRNQFWVKVQRG [PNC-27]
Tumor cell necrosis (cancer cells): induce tumor cell necrosis of cancer cells, but not normal cells
Loss in assay [1]: 1%
Appearance ([2]; 25 mg/mL in water, 40° C., above pH 7.2, after 1 week): gelled
pH at which gelling was found to occur ([2]; 25 mg/mL, after 2 weeks at 40° C.): > 5.7
